PubChem BioAssay AID652243, Drosophila RNAi Screening Center, 2013

Screen: 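Fly genes required for human androgen receptor driven transcription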 (primary screen)
System: Drosophila S2R+ cells
Reagent: long dsRNA against Drosophila genes
Time to read-out: 72 h (48 h, then 24 h hormone)
Treatment: synthetic androgen R1881 at 10 nM for 24 h
Measured: 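Firefly light from an androgen-responsive reporter and Renilla control light per well, raw and unnormalised, for each of two replicates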
Scale: firefly reporter light: higher = more light from androgen-responsive reporter; Renilla control light: higher = more constitutive control signal (cell number, transfection)
Hit rule: 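Across duplicate plates, a knock-down whose log firefly/Renilla ratio shifted a set fold down or up from the GFP/LacZ control mean was a hit; the downward cut appears as both 1.5 and 3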
Calls: active = hit: reporter lowered or raised; inactive = no hit
The screen tested about 24,000 reagents; below is an unselected part of those with a known target gene and a result. Of all reagents, 246 (1%) were called active. 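Plates not normalised; calls are printed but the firefly/Renilla ratio behind them is not deposited; fold cut for lowering reported inconsistently.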 The raw values are shown without normalisation. A number with no mark means an inactive call. A plus sign joins genes that one reagent is predicted to hit. Reagent sequences are not shown. The record does not give: the amount of reagent.

AspRS (GeneID 36420) [DRSC05914] — firefly reporter light, replicate 1 = 1.41e6; firefly reporter light, replicate 2 = 9.32e5; Renilla control light, replicate 1 = 1.35e6; Renilla control light, replicate 2 = 1.20e6
CG8172 (GeneID 35905) [DRSC07089] — firefly reporter light, replicate 1 = 3.17e5; firefly reporter light, replicate 2 = 2.69e5; Renilla control light, replicate 1 = 2.18e6; Renilla control light, replicate 2 = 2.22e6
CG8172 (GeneID 35905) [DRSC22113] — firefly reporter light, replicate 1 = 6.17e5; firefly reporter light, replicate 2 = 5.59e5; Renilla control light, replicate 1 = 1.91e6; Renilla control light, replicate 2 = 1.55e6
CG8172 (GeneID 35905) [DRSC25604] — firefly reporter light, replicate 1 = 7.81e5; firefly reporter light, replicate 2 = 8.85e5; Renilla control light, replicate 1 = 6.43e5; Renilla control light, replicate 2 = 1.05e6
Sin3A (GeneID 36382) [DRSC07552] — firefly reporter light, replicate 1 = 4.27e5; firefly reporter light, replicate 2 = 4.29e5; Renilla control light, replicate 1 = 1.02e6; Renilla control light, replicate 2 = 9.80e5
Sin3A (GeneID 36382) [DRSC37642] — firefly reporter light, replicate 1 = 2.25e5; firefly reporter light, replicate 2 = 2.43e5; Renilla control light, replicate 1 = 1.13e6; Renilla control light, replicate 2 = 1.18e6
TpnC41C (GeneID 35473) [DRSC04916] — firefly reporter light, replicate 1 = 2.82e5; firefly reporter light, replicate 2 = 3.67e5; Renilla control light, replicate 1 = 1.96e6; Renilla control light, replicate 2 = 1.95e6
CG9825 (GeneID 37624) [DRSC04569] — firefly reporter light, replicate 1 = 3.57e5; firefly reporter light, replicate 2 = 3.76e5; Renilla control light, replicate 1 = 1.94e6; Renilla control light, replicate 2 = 1.81e6
CG9825 (GeneID 37624) [DRSC25634] — firefly reporter light, replicate 1 = 1.48e6; firefly reporter light, replicate 2 = 1.51e6; Renilla control light, replicate 1 = 1.55e6; Renilla control light, replicate 2 = 1.40e6
RNaseMRP:RNA (GeneID 3772365) [DRSC36557] — firefly reporter light, replicate 1 = 7.21e5; firefly reporter light, replicate 2 = 5.88e5; Renilla control light, replicate 1 = 1.94e6; Renilla control light, replicate 2 = 1.69e6
Hpf1 (GeneID 40718) [DRSC12202] — firefly reporter light, replicate 1 = 35476; firefly reporter light, replicate 2 = 74333; Renilla control light, replicate 1 = 4.14e5; Renilla control light, replicate 2 = 3.14e5
Or42a (GeneID 35514) [DRSC04912] — firefly reporter light, replicate 1 = 1.92e5; firefly reporter light, replicate 2 = 1.41e5; Renilla control light, replicate 1 = 1.45e6; Renilla control light, replicate 2 = 7.90e5
CG34193 (GeneID 5740572) [DRSC38866] — firefly reporter light, replicate 1 = 1.26e6; firefly reporter light, replicate 2 = 1.12e6; Renilla control light, replicate 1 = 2.55e6; Renilla control light, replicate 2 = 1.75e6
CG13814 (retired record) (GeneID 40223) [DRSC10069] — firefly reporter light, replicate 1 = 2.70e5; firefly reporter light, replicate 2 = 2.39e5; Renilla control light, replicate 1 = 2.62e6; Renilla control light, replicate 2 = 2.80e6
Cp15 (GeneID 38999) [DRSC11118] — firefly reporter light, replicate 1 = 2.63e5; firefly reporter light, replicate 2 = 1.62e5; Renilla control light, replicate 1 = 2.90e6; Renilla control light, replicate 2 = 1.43e6
Cp15 (GeneID 38999) [DRSC28629] — firefly reporter light, replicate 1 = 5.39e5; firefly reporter light, replicate 2 = 5.42e5; Renilla control light, replicate 1 = 1.35e6; Renilla control light, replicate 2 = 1.50e6
CG3500 (GeneID 37697) [DRSC04379] — firefly reporter light, replicate 1 = 2.65e5; firefly reporter light, replicate 2 = 2.73e5; Renilla control light, replicate 1 = 1.70e6; Renilla control light, replicate 2 = 1.49e6
CG3500 (GeneID 37697) [DRSC26614] — firefly reporter light, replicate 1 = 4.90e5; firefly reporter light, replicate 2 = 6.04e5; Renilla control light, replicate 1 = 6.98e5; Renilla control light, replicate 2 = 5.81e5
Pten (GeneID 43991) [DRSC03402] — firefly reporter light, replicate 1 = 1.74e5; firefly reporter light, replicate 2 = 1.95e5; Renilla control light, replicate 1 = 1.22e6; Renilla control light, replicate 2 = 1.39e6
Pten (GeneID 43991) [DRSC29950] — firefly reporter light, replicate 1 = 1.16e6; firefly reporter light, replicate 2 = 8.46e5; Renilla control light, replicate 1 = 1.72e6; Renilla control light, replicate 2 = 2.04e6
IFT57 (GeneID 33579) [DRSC00720] — firefly reporter light, replicate 1 = 66538; firefly reporter light, replicate 2 = 77424; Renilla control light, replicate 1 = 7.46e5; Renilla control light, replicate 2 = 5.09e5
slv (GeneID 35773) [DRSC07685] — firefly reporter light, replicate 1 = 4.64e5; firefly reporter light, replicate 2 = 3.80e5; Renilla control light, replicate 1 = 2.64e6; Renilla control light, replicate 2 = 2.13e6
primo-2 + primo-1 [DRSC16511] — firefly reporter light, replicate 1 = 1.90e5; firefly reporter light, replicate 2 = 1.93e5; Renilla control light, replicate 1 = 3.11e6; Renilla control light, replicate 2 = 3.50e6
primo-2 + primo-1 [DRSC27823] — firefly reporter light, replicate 1 = 2.75e5; firefly reporter light, replicate 2 = 2.94e5; Renilla control light, replicate 1 = 5.05e5; Renilla control light, replicate 2 = 6.28e5
CG18745 (GeneID 59141) [DRSC15382] — firefly reporter light, replicate 1 = 1.82e5; firefly reporter light, replicate 2 = 1.64e5; Renilla control light, replicate 1 = 3.57e6; Renilla control light, replicate 2 = 2.62e6
CG18745 (GeneID 59141) [DRSC30088] — firefly reporter light, replicate 1 = 8.44e5; firefly reporter light, replicate 2 = 7.35e5; Renilla control light, replicate 1 = 9.23e5; Renilla control light, replicate 2 = 9.80e5
cyst (GeneID 35237) [DRSC02023] — firefly reporter light, replicate 1 = 7.38e5; firefly reporter light, replicate 2 = 8.02e5; Renilla control light, replicate 1 = 1.58e6; Renilla control light, replicate 2 = 1.47e6
